Experimental data from PubChem BioAssay AID2685 (National Center for Advancing Translational Sciences (NCATS), 2010).
Hit rate of the full screen: of about 320,000 compounds, about 2,100 (0.66%) were called active. Inconclusive means that the source gave no clear call. Such entries were picked first, then a sample of the others. Calls follow the shape of the dose curve; as a rule, active = well fitted inhibition curve with a large enough effect in the signal ratio, with a control signal flat (not every such curve was filed as active); inconclusive = small, poorly fitted or top-dose-only effect, or effect the other way, or a change in a side signal; inactive = flat fitted curve, though single readings scatter; the % refers to the signal ratio. Where the call is inconclusive, the potency comes from a doubtful curve fit.

experiment: qHTS Assay for Lipid Storage Modulators in Drosophila S3 Cells; conditions: BODIPY lipid droplet fluorescence, 18-24 h, cells fed with added oleic acid; lipid storage change, negative = inhibition: at 46.1 µM (top of the series) unless noted
In short: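 Drosophila S3 cells loaded with oleic acid (400 uM, as added) and compounds at several concentrations; lipid droplets imaged by 488-nm laser-scanning cytometry, 500–530 nm intensity and object ratio to cell channel. Percent activity normalized to 20 uM Triacsin C.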
% is scaled to controls: 0 for no effect and ±100 for the full control effect; potency is read from the fitted curve at half-maximal effect.

Row | Compound | lipid storage change, negative = inhibition | Potency
1 | O=C1COc2ccc(S(=O)(=O)N3CCN(c4cccc(Cl)c4)CC3)cc2N1 | inactive: 8.29% | 
2 | O=S(=O)(NC1CCCCCCC1)c1ccccc1F | inconclusive: -17.7% | 
3 | COc1ccc(C2c3ccc4ccccc4c3Oc3ncn(CCO)c(=N)c32)cc1OC (centres undefined) | inconclusive: 120% | 
4 | CCOC(=O)N1CCC(NC(=O)C2CCC(CNS(=O)(=O)c3ccc(OC)cc3)CC2)CC1 (centres undefined) | inconclusive: 15.3% | 
5 | CN1CCS/C1=C/C=C1/SC(=S)N(Cc2ccccc2)C1=O |  | inconclusive: 25.9 µM [falling, partial curve, poor fit]
6 | Cc1ccc(NC(=O)CCCn2nc(C)c3c(C)n(-c4ccccc4)nc3c2=O)c(Cl)c1 | inconclusive: 73.2% | 
7 | COc1ccc(C(=O)NNC(=O)COC(=O)c2sccc2C)cc1 |  | inconclusive: 2.31 µM [activator, full curve]
8 | Cc1ccc(OCCNC(=O)c2cccc(C)c2)cc1 | inconclusive: 69.2% | 
9 | Cc1ccccc1OCC(=O)OCC(=O)Nc1ccc(N2CCOCC2)cc1 | inconclusive: -49.8% | 
10 | CCCCNS(=O)(=O)c1ccc2nc(SCC(=O)c3ccc(C#N)cc3)[nH]c2c1 | inconclusive: 17.4% | 
11 | CCCn1c(SC(C)C(=O)N2CCOCC2)nc2ccc(Br)cc2c1=O (centres undefined) | inconclusive: 22.7% | 
12 | COc1ccc(CNC(=O)CN2CCC(NC(=O)c3ccccc3C)CC2)cc1 |  | inconclusive: 29.1 µM [activator, single point]
13 | Cc1cccc(C#N)c1NC1=CC(=O)CC(C)(C)C1 | inconclusive: 9.75% | 
14 | CCOc1ccc(CO[C@@H]2O[C@H](CO)[C@@H](O)[C@H](O)[C@H]2NC(C)=O)cc1OC | inconclusive: 8.33% | 
15 | O=C(Nc1ccccc1)C1CCCN(C(=O)c2ccc(Cl)cc2)C1 (centres undefined) | inconclusive: 12.5% | 
16 | CCOc1ccc(NC(=O)CSc2nc3ccccc3c(=O)n2Cc2cccs2)cc1 | inconclusive: 7.8% | 
17 | Cc1ccc(-c2cc(C(=O)OCn3nnc4ccccc4c3=O)c3ccccc3n2)cc1 | inconclusive: -16.2% | 
18 | O=C(NCCCN1CCOCC1)C(Sc1ccccc1)c1ccccc1 (centres undefined) | inconclusive: -5.17% | 
19 | Cc1cc([N+](=O)[O-])nn1CCCC(=O)Nc1ccc(Cl)cc1Cl | inconclusive: -2.72% | 
20 | CC1CCC(NS(=O)(=O)c2ccc3c(c2)n(C)c(=O)c(=O)n3C)CC1 (centres undefined) | inconclusive: 32.3% | 
21 | NC(=O)c1c(-c2ccc(Cl)cc2Cl)csc1NC(=O)Cc1ccccc1 |  | inconclusive: 29.1 µM [falling, single point]
22 | CC(=O)Nc1nc2cc3c(cc2s1)OCO3 | inconclusive: 68.8% | 
23 | COc1ccc(C(=O)NC2CC2)cc1OC1CCN(Cc2ccc(NC(C)=O)cc2)CC1 | inconclusive: 19.7% | 
24 | O=S(=O)(Nc1ccccc1N1CCCCC1)c1ccc(Cl)s1 | inconclusive: 43% | 
25 | COc1cccc(CNC(=O)CCNC(=O)C2CCN(S(=O)(=O)c3ccc(F)cc3)CC2)c1 | inconclusive: 5.92% | 
26 | Cc1ccc(C(=O)Nc2cnc3ccccn3c2=O)cc1 |  | inconclusive: 4.61 µM [activator, single point]
27 | Cc1cc(/C=N/NC(=O)c2cccc([N+](=O)[O-])c2)c(C)n1-c1ccc(Cl)cc1Cl | inconclusive: 46.3% | 

Row | Compound | lipid storage change, negative = inhibition | Potency
28 | CCOC(=O)C1=C(N)Oc2cc(O)ccc2C1c1cccc([N+](=O)[O-])c1 (centres undefined) | inconclusive: -3.9% | 
29 | COc1cc(OC)c(C(=O)Nc2cc(Cl)ccc2-n2cncn2)cc1OC | inconclusive: 40.9% | 
30 | CCOC(=O)Cn1nnc(-c2ccc(S(C)(=O)=O)cc2)n1 | inconclusive: -6.24% | 
31 | O=C(c1ccc(Cl)cc1)c1nnc(-c2ccncc2)o1 | inconclusive: 46.8% | 
32 | Cn1cc(SCC(N)=O)c2ccccc21 | inconclusive: -9.1% | 
33 | O=C(O)c1ccc(OCCN2CCCC2=O)cc1 |  | inconclusive: 0.58 µM [activator, single point]
34 | O=C(NC1CC1)C1CCN(C2CCN(C(=O)CCOc3ccccc3)CC2)CC1 | inconclusive: -2.51% | 
35 | Cc1c(/C=C(\CC(=O)O)c2nc3ccccc3s2)cc(C#N)n1C | inconclusive: -14% | 
36 | Cc1cc(=O)c(C(=O)O)cn1-c1ccc(C(C)C)cc1 | inconclusive: -45.5% | 
37 | Cc1oc2c(CN3CCC(C)CC3)c(O)ccc2c(=O)c1-c1ccccc1 | inconclusive: 431% | 
38 | CCNc1nc(NC(C)C)nc(OCCNS(=O)(=O)c2cc(C)ccc2C)n1 | inconclusive: 5.96% | 
39 | CCOc1ccc(NC2c3ccccc3C(=O)N2Cc2ccc3c(c2)OCO3)cc1 (centres undefined) | inconclusive: 77.3% | 
40 | Cc1ccc(/C(N)=N/OC(=O)c2ccc(C)cc2Cl)cc1 |  | inconclusive: 18.4 µM [activator, single point]
41 | O=C(NCCCO)C(=O)NCC(c1ccc2c(c1)OCO2)N1CCN(c2ccc(F)cc2)CC1 (centres undefined) | inconclusive: 30.5% | 
42 | CN(Cc1cnccn1)C(=O)CC1C(=O)NCCN1Cc1ccc(F)cc1Cl (centres undefined) | inconclusive: 19.4% | 
43 | CCc1cc2ccc(C)c(C)c2nc1SCC(=O)NNC(=O)c1ccco1 |  | inconclusive: 29.1 µM [activator, single point]
44 | COc1cc(NC(=O)COC(=O)/C=C/c2ccccc2Cl)cc(OC)c1 |  | inconclusive: 0.58 µM [activator, single point]
45 | O=C(O)CCc1nc2cc3ccccc3cc2[nH]1 | inconclusive: -11.9% | 
46 | O=C(NCC(c1cccnc1)N1CCOCC1)c1ccco1 (centres undefined) | inconclusive: 15.5% | 
47 | CCc1ccc(S(=O)(=O)Nc2nnc(N)s2)cc1 | inconclusive: 34.2% | 
48 | Cc1ccccc1CCNC(=O)CCn1nc(C)c2c(C)n(-c3ccccc3)nc2c1=O | inconclusive: -14.1% | 
49 | CNC(=O)c1ccc(Nc2nc(-c3ccccc3)nc3ccccc23)cc1 |  | inconclusive: 29.1 µM [falling, single point]
50 | CCCC1Oc2ccccc2C(=O)N(CC(=O)c2ccc3c(c2)OCCO3)C1=O (centres undefined) | inconclusive: -53.3% | 
51 | COc1ccc(S(=O)(=O)N2CCN(C(=O)c3cc(C)oc3C)CC2)cc1OC | inconclusive: 21.6% | 
52 | COC(=O)c1sccc1NC(=O)c1c(Cl)cnn1C | inconclusive: 25.4% | 
53 | O=C(Nc1ccc2oc(-c3cccnc3)nc2c1)c1ccco1 | inactive: -15.4% | 
54 | CCOC(=O)c1ccc(NC(=O)c2c(O)c3ccccc3n(C)c2=O)cc1 | inconclusive: 0.0012% | 

Looked up one by one from above:
Row | Compound | lipid storage change, negative = inhibition | Potency
47 | CCc1ccc(S(=O)(=O)Nc2nnc(N)s2)cc1 | inconclusive: 34.2% | 
48 | Cc1ccccc1CCNC(=O)CCn1nc(C)c2c(C)n(-c3ccccc3)nc2c1=O | inconclusive: -14.1% | 
42 | CN(Cc1cnccn1)C(=O)CC1C(=O)NCCN1Cc1ccc(F)cc1Cl (centres undefined) | inconclusive: 19.4% | 
43 | CCc1cc2ccc(C)c(C)c2nc1SCC(=O)NNC(=O)c1ccco1 |  | inconclusive: 29.1 µM [activator, single point]
45 | O=C(O)CCc1nc2cc3ccccc3cc2[nH]1 | inconclusive: -11.9% | 

Additional compounds.

Row | Compound | lipid storage change, negative = inhibition | Potency
55 | CC(CN1CCCC1)OC(=O)c1ccc(Cl)cc1Cl (centres undefined) | inconclusive: -9.96% | 
56 | CCOc1cccc(C2/C(=C(/O)c3ccc4c(c3)CC(C)O4)C(=O)C(=O)N2CCN2CCOCC2)c1 (centres undefined) |  | inconclusive: 14.6 µM [activator, partial curve, poor fit]
57 | Clc1nc2sccn2c1/C=N/n1cnc2ccccc21 | inconclusive: 44.1% | 
58 | CCOC(=O)Cn1c(=O)c2c(nc3n2CCCCN3c2ccc(C)cc2)n(C)c1=O | inconclusive: 21.5% | 
59 | Cc1ccc(CC2CC(=O)N(c3ccc(Cl)cn3)C2=O)cc1 (centres undefined) |  | inconclusive: 0.0073 µM [falling, full curve, poor fit]
60 | COC(=O)c1c(NC(=O)CSc2nnnn2C)sc(C)c1C |  | inconclusive: 0.146 µM [activator, full curve, poor fit]
61 | CCn1c(CNC(=O)c2cc(OC)c(OC)c(OC)c2)cc2ccccc21 |  | inconclusive: 29.1 µM [falling, single point]
62 | Cc1ccc(C(=O)N2CCCc3ccccc32)c(F)c1F | inconclusive: -48.2% | 
63 | CC1CCCN(CCCNC(=O)c2ccc(CS(=O)(=O)Cc3cccc(Cl)c3)o2)C1 (centres undefined) |  | inconclusive: 0.0731 µM [falling, full curve]
64 | CCCNc1c(NS(=O)(=O)c2ccc(Cl)s2)c(=O)oc2ccccc12 | inconclusive: 11.4% | 
65 | C/C(=C\C(=O)N1CCc2ccccc21)C(=O)O | inconclusive: 12.3% | 
66 | Cc1ccc2nc(SCC(=O)NCc3ccco3)nc(=O)n2c1 | inconclusive: 12.1% | 
67 | Cc1ccc(C(=O)OCC(=O)NCc2cccs2)s1 | inconclusive | 
68 | COc1ccc(C(c2nnnn2CS(=O)(=O)c2ccc(C)cc2)N2CCN(c3ncccn3)CC2)cc1 (centres undefined) | inconclusive: 7.87% | 
69 | CN(C)c1ccc(-c2noc(C3CCN(S(=O)(=O)c4cccc(Cl)c4)CC3)n2)cc1 |  | inconclusive: 1.64 µM [activator, full curve]
70 | CCN(C1CCCCC1)S(=O)(=O)c1ccc(S(=O)(=O)N2CCN(CCC#N)CC2)cc1 | inconclusive: 31.3% | 
71 | CN1CCN(CCC(=O)N/N=C/c2cc([N+](=O)[O-])ccc2O)CC1 | inconclusive: -1.44% | 
72 | O=c1[nH]cc(N=Cc2cc([N+](=O)[O-])ccc2O)c(=O)[nH]1 |  | inconclusive: 4.11 µM [activator, full curve]
73 | CCCCc1cc(=O)oc2cc(C)cc(OCC(=O)NCc3cccnc3)c12 |  | inconclusive: 29.1 µM [falling, single point]
74 | O=C(Nc1ccc(Br)c(C(F)(F)F)c1)c1ccc(C(F)(F)F)cc1 | inconclusive: -94% | 
75 | CC(C)(C)c1ccc(C(=O)Nc2cccc(-n3cnnn3)c2)cc1 |  | inconclusive: 29.1 µM [falling, single point]
76 | CC1CCN(C(c2ccc(N(C)C)cc2)c2nnnn2Cc2ccc(F)cc2)CC1 (centres undefined) | inconclusive: 24% | 
77 | CCN1C(=NCc2ccco2)N[C@@H](c2cccc(C(F)(F)F)c2)C(C(=O)OC)=C1C | inconclusive: -31.6% | 
78 | COc1ccccc1N(CC(=O)N(c1ccccc1)C(C)C)S(=O)(=O)c1cccs1 | inconclusive: 55.1% | 
79 | NS(=O)(=O)c1cccc(NC(=O)CCS(=O)(=O)c2ccc(Cl)cc2)c1 | inconclusive: 22.6% | 
